No constants are given. Whether binding was seen depends on the method and setting. Binding seen in cells or lysates may run through a third protein. Some entries that bind do so weakly or less than the wild type.

The chains behind the UniProt entries cited, without tags or fusion partners. Where a name states a change or a piece, a line headed by the entry shows the natural chain unless it says otherwise. A line that says so, or that is headed by a name, gives the form on record, which may keep a tag or linker.
UniProt P63096: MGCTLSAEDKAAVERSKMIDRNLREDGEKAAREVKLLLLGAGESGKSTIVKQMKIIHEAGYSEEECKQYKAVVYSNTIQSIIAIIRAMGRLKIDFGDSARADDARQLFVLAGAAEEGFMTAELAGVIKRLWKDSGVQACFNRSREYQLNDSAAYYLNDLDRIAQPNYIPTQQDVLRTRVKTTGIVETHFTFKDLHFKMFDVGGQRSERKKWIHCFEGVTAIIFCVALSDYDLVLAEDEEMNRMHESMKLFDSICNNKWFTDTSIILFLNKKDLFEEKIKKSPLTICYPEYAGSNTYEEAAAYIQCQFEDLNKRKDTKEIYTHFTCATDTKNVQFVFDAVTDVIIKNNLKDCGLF
Gαi1-QL-FLAG-APEX2 (P63096, form named): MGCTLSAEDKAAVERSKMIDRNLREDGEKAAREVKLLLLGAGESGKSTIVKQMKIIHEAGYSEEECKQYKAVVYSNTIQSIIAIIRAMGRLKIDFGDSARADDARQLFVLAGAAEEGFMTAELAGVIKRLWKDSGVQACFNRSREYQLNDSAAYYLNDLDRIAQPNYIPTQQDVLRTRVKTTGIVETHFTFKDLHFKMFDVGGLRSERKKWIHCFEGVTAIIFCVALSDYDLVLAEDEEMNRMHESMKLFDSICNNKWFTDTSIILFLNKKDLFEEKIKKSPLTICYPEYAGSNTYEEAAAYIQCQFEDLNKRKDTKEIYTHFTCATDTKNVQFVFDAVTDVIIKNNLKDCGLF
UniProt O15085: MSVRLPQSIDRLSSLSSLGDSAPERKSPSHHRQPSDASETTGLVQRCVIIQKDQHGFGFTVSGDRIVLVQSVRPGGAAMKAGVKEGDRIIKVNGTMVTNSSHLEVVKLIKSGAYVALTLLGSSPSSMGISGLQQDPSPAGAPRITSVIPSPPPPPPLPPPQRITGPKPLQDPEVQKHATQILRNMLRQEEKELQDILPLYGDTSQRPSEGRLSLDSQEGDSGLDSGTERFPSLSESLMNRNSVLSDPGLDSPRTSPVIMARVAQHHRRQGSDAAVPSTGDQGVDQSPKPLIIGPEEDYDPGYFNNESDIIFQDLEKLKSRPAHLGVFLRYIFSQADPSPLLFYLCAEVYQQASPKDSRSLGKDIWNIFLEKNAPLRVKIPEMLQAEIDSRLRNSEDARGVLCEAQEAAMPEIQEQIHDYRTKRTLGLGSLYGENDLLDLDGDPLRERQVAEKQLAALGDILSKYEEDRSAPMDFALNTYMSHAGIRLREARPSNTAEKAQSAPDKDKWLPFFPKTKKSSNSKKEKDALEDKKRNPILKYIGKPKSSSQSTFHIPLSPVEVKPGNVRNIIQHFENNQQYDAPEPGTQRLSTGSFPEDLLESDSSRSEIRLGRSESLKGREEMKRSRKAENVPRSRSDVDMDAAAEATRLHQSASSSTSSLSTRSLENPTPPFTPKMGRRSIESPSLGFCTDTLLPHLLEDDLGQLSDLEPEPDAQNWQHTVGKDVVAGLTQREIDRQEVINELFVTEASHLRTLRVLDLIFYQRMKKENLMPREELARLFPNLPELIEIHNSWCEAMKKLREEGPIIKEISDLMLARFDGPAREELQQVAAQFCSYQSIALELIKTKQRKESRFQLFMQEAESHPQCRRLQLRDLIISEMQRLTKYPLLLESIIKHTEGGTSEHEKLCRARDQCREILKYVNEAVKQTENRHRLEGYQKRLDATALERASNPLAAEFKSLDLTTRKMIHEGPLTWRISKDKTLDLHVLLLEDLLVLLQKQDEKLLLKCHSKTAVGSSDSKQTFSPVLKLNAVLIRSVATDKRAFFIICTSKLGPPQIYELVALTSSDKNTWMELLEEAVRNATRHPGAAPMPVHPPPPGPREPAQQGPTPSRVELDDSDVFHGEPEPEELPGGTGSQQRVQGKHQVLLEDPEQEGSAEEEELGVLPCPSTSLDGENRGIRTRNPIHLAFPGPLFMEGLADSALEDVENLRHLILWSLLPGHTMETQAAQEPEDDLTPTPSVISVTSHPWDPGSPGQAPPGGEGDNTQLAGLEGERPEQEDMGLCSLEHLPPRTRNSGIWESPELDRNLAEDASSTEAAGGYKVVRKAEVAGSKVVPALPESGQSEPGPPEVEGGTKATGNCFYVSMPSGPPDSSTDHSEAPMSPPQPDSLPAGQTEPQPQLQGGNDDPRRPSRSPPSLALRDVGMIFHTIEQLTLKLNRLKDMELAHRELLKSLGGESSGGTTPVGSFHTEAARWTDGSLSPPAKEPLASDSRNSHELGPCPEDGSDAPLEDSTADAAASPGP

This assay concerns the target Gαi1-QL-FLAG-APEX2 (UniProt P63096). In words: proximity ligation.

As to GFP-PRG (from UniProt O15085 1-1522), the binding entry is on record as “binds”.

The values are drawn from article doi:10.1101/2021.07.15.452545.
